{"source": "PubChem BioAssay AID1259424 (University of Nebraska Medical Center, 2018)", "assay": "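Seek colon cancer survival genes behaving like KSR1, using a six-gene signature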 (primary screen)", "cells": "human HCT116 colon cancer cells", "knock-down reagent": "siRNA pool against human genes, 50 nM", "measured": "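Log2 levels of six mRNAs (branched-DNA multiplex), adjusted by two reference genes and the non-targeting median, then scored against the average KSR1 knockdown pattern as Pearson r and euclidean distance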", "scale": "mean correlation with KSR1 profile: higher = expression change more like KSR1 knockdown; mean distance from KSR1 profile: higher = expression change less like KSR1 knockdown", "note": "Here is one part, drawn at random, of about 14,000 reagents. 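Higher correlation or smaller distance means closer resemblance to KSR1 loss; control wells, including KSR1 knockdowns, recur on many plates.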 Not all columns of the deposit are shown. Not given: the time to read-out."}
{"gene symbol": "CNNM4", "mean correlation with KSR1 profile": 0.0122, "mean distance from KSR1 profile": 2.22}
{"gene symbol": "LRRCC1", "mean correlation with KSR1 profile": 0.329, "mean distance from KSR1 profile": 3.26}
{"gene symbol": "TBCA", "mean correlation with KSR1 profile": -0.599, "mean distance from KSR1 profile": 2.3}
{"gene symbol": "DCTN4", "mean correlation with KSR1 profile": 0.052, "mean distance from KSR1 profile": 1.32}
{"gene symbol": "FGF21", "mean correlation with KSR1 profile": -0.308, "mean distance from KSR1 profile": 1.24}
{"gene symbol": "PIDD1", "mean correlation with KSR1 profile": -0.12, "mean distance from KSR1 profile": 4.65}
{"gene symbol": "UEVLD", "mean correlation with KSR1 profile": 0.0973, "mean distance from KSR1 profile": 3.74}
{"gene symbol": "ELOB", "mean correlation with KSR1 profile": -0.898, "mean distance from KSR1 profile": 7.08}
{"gene symbol": "ARHGAP26", "mean correlation with KSR1 profile": -0.684, "mean distance from KSR1 profile": 2.24}
{"gene symbol": "F9", "mean correlation with KSR1 profile": -0.1, "mean distance from KSR1 profile": 1.78}
{"gene symbol": "MTHFD1L", "mean correlation with KSR1 profile": 0.297, "mean distance from KSR1 profile": 1.9}
{"gene symbol": "NHERF2", "mean correlation with KSR1 profile": 0.519, "mean distance from KSR1 profile": 2.55}
{"gene symbol": "PTP4A3", "mean correlation with KSR1 profile": -0.855, "mean distance from KSR1 profile": 2.28}
{"gene symbol": "AK3", "mean correlation with KSR1 profile": 0.256, "mean distance from KSR1 profile": 1.57}
{"gene symbol": "GABRP", "mean correlation with KSR1 profile": -0.465, "mean distance from KSR1 profile": 2.66}
{"gene symbol": "TRPC5", "mean correlation with KSR1 profile": -0.415, "mean distance from KSR1 profile": 1.62}
{"gene symbol": "PFKFB1", "mean correlation with KSR1 profile": 0.0708, "mean distance from KSR1 profile": 2.61}
{"gene symbol": "SAFB2", "mean correlation with KSR1 profile": -0.244, "mean distance from KSR1 profile": 1.13}
{"gene symbol": "IL17RA", "mean correlation with KSR1 profile": 0.546, "mean distance from KSR1 profile": 2.33}
{"gene symbol": "PTPA", "mean correlation with KSR1 profile": -0.623, "mean distance from KSR1 profile": 1.47}
{"gene symbol": "UBE2J2", "mean correlation with KSR1 profile": 0.398, "mean distance from KSR1 profile": 1.12}
{"gene symbol": "DRC3", "mean correlation with KSR1 profile": 0.436, "mean distance from KSR1 profile": 1.62}

Reprinted from the entries so far (5 entries):
{"gene symbol": "DCTN4", "mean correlation with KSR1 profile": 0.052, "mean distance from KSR1 profile": 1.32}
{"gene symbol": "FGF21", "mean correlation with KSR1 profile": -0.308, "mean distance from KSR1 profile": 1.24}
{"gene symbol": "PIDD1", "mean correlation with KSR1 profile": -0.12, "mean distance from KSR1 profile": 4.65}
{"gene symbol": "UEVLD", "mean correlation with KSR1 profile": 0.0973, "mean distance from KSR1 profile": 3.74}
{"gene symbol": "ELOB", "mean correlation with KSR1 profile": -0.898, "mean distance from KSR1 profile": 7.08}

Further records follow.
{"gene symbol": "OSBPL10", "mean correlation with KSR1 profile": -0.252, "mean distance from KSR1 profile": 2.62}
{"gene symbol": "ADAMTS20", "mean correlation with KSR1 profile": 0.0677, "mean distance from KSR1 profile": 1.68}
{"gene symbol": "DLG4", "mean correlation with KSR1 profile": 0.0843, "mean distance from KSR1 profile": 2.99}
{"gene symbol": "TNFAIP6", "mean correlation with KSR1 profile": 0.489, "mean distance from KSR1 profile": 1.87}
{"gene symbol": "GPR18", "mean correlation with KSR1 profile": 0.624, "mean distance from KSR1 profile": 2.09}
{"gene symbol": "NOCT", "mean correlation with KSR1 profile": -0.206, "mean distance from KSR1 profile": 2.55}
{"gene symbol": "CCDC82", "mean correlation with KSR1 profile": 0.198, "mean distance from KSR1 profile": 2.18}
{"gene symbol": "SEPTIN7", "mean correlation with KSR1 profile": -0.644, "mean distance from KSR1 profile": 2.04}
{"gene symbol": "VPS72", "mean correlation with KSR1 profile": -0.513, "mean distance from KSR1 profile": 2.16}
{"gene symbol": "KLF11", "mean correlation with KSR1 profile": 0.034, "mean distance from KSR1 profile": 1.54}
{"gene symbol": "R3HDM1", "mean correlation with KSR1 profile": -0.383, "mean distance from KSR1 profile": 1.65}
{"gene symbol": "ADAM21", "mean correlation with KSR1 profile": -0.1, "mean distance from KSR1 profile": 2.33}
{"gene symbol": "RGL1", "mean correlation with KSR1 profile": 0.604, "mean distance from KSR1 profile": 1.41}
{"gene symbol": "IGBP1", "mean correlation with KSR1 profile": -0.383, "mean distance from KSR1 profile": 2.07}
